Measured values from doi:10.1101/2025.11.03.686312.
Changes are numbered by the printed parent chain. These are yes or no findings as the source states them, for the method shown. In cells and extracts the contact can be indirect. Some results given as binding are weak or reduced against the parent protein; the word gives no strength.

Sequences of proteins named here, by UniProt entry; tags and fusion partners are left off. Residues count along the entry.
UniProt O75396: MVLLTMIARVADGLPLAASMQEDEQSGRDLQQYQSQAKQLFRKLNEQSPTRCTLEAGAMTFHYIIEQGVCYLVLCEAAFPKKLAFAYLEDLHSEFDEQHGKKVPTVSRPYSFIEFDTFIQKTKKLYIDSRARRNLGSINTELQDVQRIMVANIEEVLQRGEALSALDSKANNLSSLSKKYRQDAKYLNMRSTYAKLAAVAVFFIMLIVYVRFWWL
UniProt Q9P0T7, residues 21-183: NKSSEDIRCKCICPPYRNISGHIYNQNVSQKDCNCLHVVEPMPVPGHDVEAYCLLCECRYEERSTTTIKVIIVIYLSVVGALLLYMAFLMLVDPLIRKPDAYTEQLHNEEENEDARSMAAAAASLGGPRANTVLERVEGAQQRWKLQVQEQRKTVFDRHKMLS

Legend:
Experiment in all cases: co-IP
[1] = target: T1, ClC-5 V523Δ, overexpressed in HEK293T cells (human) (UniProt P51795)
T1 sequence: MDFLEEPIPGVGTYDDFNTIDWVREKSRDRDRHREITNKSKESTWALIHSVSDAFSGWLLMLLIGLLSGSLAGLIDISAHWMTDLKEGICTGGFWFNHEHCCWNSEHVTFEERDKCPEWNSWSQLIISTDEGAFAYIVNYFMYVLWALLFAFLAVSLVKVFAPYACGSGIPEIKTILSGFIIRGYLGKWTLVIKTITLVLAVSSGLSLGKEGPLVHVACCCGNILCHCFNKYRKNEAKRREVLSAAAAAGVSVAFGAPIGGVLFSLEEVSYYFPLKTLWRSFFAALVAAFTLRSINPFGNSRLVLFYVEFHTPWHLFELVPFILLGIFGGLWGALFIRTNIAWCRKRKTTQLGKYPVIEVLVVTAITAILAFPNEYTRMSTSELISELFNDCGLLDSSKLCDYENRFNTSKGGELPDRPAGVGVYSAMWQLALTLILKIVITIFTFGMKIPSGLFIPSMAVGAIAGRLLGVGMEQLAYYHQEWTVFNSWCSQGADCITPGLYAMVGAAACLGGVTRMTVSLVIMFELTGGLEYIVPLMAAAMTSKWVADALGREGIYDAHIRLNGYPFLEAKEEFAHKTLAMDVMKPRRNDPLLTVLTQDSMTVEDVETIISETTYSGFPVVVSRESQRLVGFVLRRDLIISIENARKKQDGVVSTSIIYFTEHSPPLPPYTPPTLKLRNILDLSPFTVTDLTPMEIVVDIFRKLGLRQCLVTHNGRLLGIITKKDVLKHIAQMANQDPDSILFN

[2] = target: T2, ClC-5 E527D, overexpressed in HEK293T cells (human) (UniProt P51795)
T2 sequence: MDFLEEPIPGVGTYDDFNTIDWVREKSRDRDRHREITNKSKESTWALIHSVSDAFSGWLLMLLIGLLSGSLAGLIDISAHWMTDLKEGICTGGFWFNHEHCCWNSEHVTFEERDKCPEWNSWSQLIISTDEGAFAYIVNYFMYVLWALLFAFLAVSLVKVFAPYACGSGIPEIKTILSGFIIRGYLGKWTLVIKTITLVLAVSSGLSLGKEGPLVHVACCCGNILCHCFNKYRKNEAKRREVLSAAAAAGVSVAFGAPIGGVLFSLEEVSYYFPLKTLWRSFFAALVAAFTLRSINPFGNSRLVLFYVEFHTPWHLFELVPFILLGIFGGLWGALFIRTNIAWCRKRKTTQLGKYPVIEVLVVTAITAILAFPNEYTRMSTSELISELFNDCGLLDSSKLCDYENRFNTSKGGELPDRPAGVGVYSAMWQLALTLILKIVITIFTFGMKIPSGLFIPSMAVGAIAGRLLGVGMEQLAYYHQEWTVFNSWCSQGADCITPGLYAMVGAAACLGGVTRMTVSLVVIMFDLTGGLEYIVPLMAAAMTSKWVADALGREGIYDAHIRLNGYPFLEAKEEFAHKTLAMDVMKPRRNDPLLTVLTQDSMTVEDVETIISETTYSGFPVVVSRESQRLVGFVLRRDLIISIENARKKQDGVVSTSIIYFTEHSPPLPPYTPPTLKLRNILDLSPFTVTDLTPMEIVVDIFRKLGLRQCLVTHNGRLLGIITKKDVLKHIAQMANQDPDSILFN

[3] = target: T3, ClC-5 I524K, overexpressed in HEK293T cells (human) (UniProt P51795)
T3 sequence: T2 sequence with I524K, D527E

[4] = target: T4, ClC-5 WT, overexpressed in HEK293T cells (human) (UniProt P51795)
T4 sequence: T2 sequence with D527E

Row | Substance | binding [1] | binding [2] | binding [3] | binding [4]
1 | SEC22B, overexpressed in HEK293T cells (from UniProt O75396 1-215) | no binding | no binding | no binding | binds
2 | TMEM9, overexpressed in HEK293T cells (from UniProt Q9P0T7 21-183) | binds | binds | binds | binds
